Laboratory results as given in PubChem BioAssay (NCATS).
Inconclusive means that the source gave no clear call. Such entries were picked first, then a sample of the others. A potency beside an inconclusive call is a rough fit, not a confirmed value. The source made the active and inactive calls. The call rests on the fitted dose curve; in most records, active means well fitted cell-killing curve with a large enough effect; inconclusive means small, poorly fitted or top-dose-only effect, or effect the other way; inactive means no such curve, though single readings can be large or run the other way.

Assay: Quantitative High-Throughput drug screen in 47 multiple myeloma cell lines against the NCATS MIPE library collection: KMS11_JCRBsus cell viability assay (AID 1919873); further: nearly all actives have a fitted effect of over 50% in size
Conditions: KMS11 myeloma viability, CellTiter-Glo ATP luminescence, 48 h; series mostly up to 45.8 µM
Source text: PI: Beverly A. Mock Ph.D.
Laboratory of Cancer Biology and Genetics,
Center for Cancer Research, National Cancer Institute,
National Institute of Health, Bethesda, Maryland
Drug resistance and disease progression are common in multiple myeloma (MM) patients, underscoring the need for new therapeutic combinations. […] We hypothesized that effective combinations would reduce MYC expression and enhance p16 activity. […] These preclinical data identify potentially useful drug combinations for evaluation in drug-resistant MM and reveal potential mechanisms of combined drug sensitivity.
Described herein is the primary MIPE qHTS used to cherrypick compounds. Validated compounds were then further tested for potential synergistic activiy.
[1] Peat TJ, Gaikwad SM, Dubois W, Gyabaah-Kessie N, Zhang S, Gorjifard S, Phyo Z, Andres M, Hughitt VK, Simpson RM, Miller MA, Girvin AT, Taylor A, Williams D, D'Antonio N, Zhang Y, Rajagopalan A, Flietner E, Wilson K, Zhang X, Shinn P, Klumpp-Thomas C, McKnight C, Itkin Z, Chen L, Kazandijian D, Zhang J, Michalowski AM, Simmons JK, Keats J, Thomas CJ, Mock BA. Drug combinations identified by high-throughput screening promote cell cycle transition and upregulate Smad pathways in myeloma. Cancer Lett. 2023 Aug 1;568:216284. doi: 10.1016/j.canlet.2023.216284. Epub 2023 Jun 24. PMID: 37356470; PMCID: PMC10408729.
SEQUENCE No. (e.g., 1, 2, 3, etc.); […] (e.g., Cells, Incubation, Reagent, etc.); VALUE and DESCRIPTION.
1; Cells; 5 uL; white, solid bottom 1536-well Greiner assay plate.
2; Compounds; 23 nL; Kalypsis pin tool (Wako USA) equipped with a 1536-well pin head to transfer to the assay plates.
3; Incubation; 48 hours; 37C incubation.
4; Reagent;5uL; CellTiter Glo (Promega).
5; Detector; 425V; Luminescence; Viewlux PerkinElmer.
NOTES (numbers refer to Sequence numbers above)
1. The cell-based screening methods employed in this study were like those previously published. Briefly, the corresponding myeloma cell lines were screened in 1,536-well plates with 500 cells, 5-uL per well for inhibition of cell viability (assessed by measuring ATP levels with CellTiterGlo).
2. NCATS MIPE 4.0 library of approved and investigational drugs were added using the Kalypsis pin tool. Wells treated with DMSO only for 100% viability and media only for 0% viability were used as controls.
3. The assay plates were covered and incubated for 48 hours in a 37C, 5% CO2 incubator with controlled humidity.
4. After 48 hours, CellTilter-GloTM luminescent substrate mix (Promega) reagent was added to the assay plate and plates we incubated for 5 min at room temperature.
5. Signal was measured as median relative luminescence units on a ViewLux (PerkinElmer) multiplate reader.
[1] Heske CM, Davis MI, Baumgart JT, Wilson K, Gormally MV, Chen L, Zhang X, Ceribelli M, Duveau DY, Guha R, Ferrer M, Arnaldez FI, Ji J, Tran HL, Zhang Y, Mendoza A, Helman LJ, Thomas CJ. Matrix Screen Identifies Synergistic Combination of PARP Inhibitors and Nicotinamide Phosphoribosyltransferase (NAMPT) Inhibitors in Ewing Sarcoma. Clin Cancer Res. 2017 Dec 1;23(23):7301-7311. doi: 10.1158/1078-0432.CCR-17-1121. Epub 2017 Sep 12. PMID: 28899971; PMCID: PMC6636827.
Potency means the concentration at half of the fitted maximal effect.

Structure (SMILES)	Potency
NS(=O)(=O)c1cc(Cl)c(Cl)c(S(N)(=O)=O)c1	inconclusive: 4.18 µM [rising, partial curve, poor fit]
CCC[C@H]1C[C@H](C(=O)N[C@@H]([C@@H]2O[C@@H](SC)[C@@H](O)[C@@H](O)[C@@H]2O)[C@H](C)Cl)N(C)C1	inactive
CCC(=O)O[C@]1(C(=O)SCF)[C@H](C)C[C@H]2[C@@H]3C[C@H](F)C4=CC(=O)C=C[C@]4(C)[C@@]3(F)[C@@H](O)C[C@@]21C	inactive
COc1ccc2cc1Oc1ccc(cc1)C[C@H]1c3cc(c(OC)cc3CCN1C)Oc1c(OC)c(OC)cc3c1[C@H](C2)N(C)CC3	active: 14.8 µM
Cc1cc(-c2nnc3n2CCCCC3)c(C)n1-c1ccccc1	inactive
C[C@@H](NCc1cc2ccccc2[nH]1)c1cccc2ccccc12	inactive
COc1ccccc1-c1cccc(-c2c(O)c3cc(C#N)c(Cl)cc3[nH]c2=O)c1	inconclusive: 3.4 µM [cytotoxic, full curve, poor fit]
O=[N+]([O-])c1cn2c(n1)OC[C@@H](OCc1ccc(OC(F)(F)F)cc1)C2	inactive
O=C(CN1C(=O)C2(CCCC2)NC[C@H]1c1cc(F)cc(F)c1)Nc1ccc2c(c1)C[C@@]1(C2)C(=O)Nc2ncccc21	inactive
N[C@@H](C(=O)N[C@@H]1C(=O)N2C(C(=O)O)=C(Cl)CS[C@H]12)c1ccccc1	inconclusive: 11.8 µM [cytotoxic, single point]
CCCS(=O)(=O)Nc1ccc(F)c(C(=O)c2c[nH]c3ncc(Cl)cc23)c1F	active: 26.4 µM
CCC(C)(C)c1ccc(CC(C)CN2C[C@@H](C)O[C@@H](C)C2)cc1 (stereo not given in full)	inconclusive: 33.2 µM [cytotoxic, single point]
Cc1cnc(-c2cc(N3CCN(C(=O)CCS(C)(=O)=O)CC3)ncc2Cl)c(C)c1	inconclusive: 11.8 µM [cytotoxic, single point]
CCN(CC)CCOc1ccc(Cc2ccccc2)cc1	inconclusive: 37.2 µM [cytotoxic, single point]
NC(=O)c1cnccn1	inactive
O=c1ncn2nc(Sc3ccc(F)cc3F)ccc2c1-c1c(Cl)cccc1Cl	inconclusive: 26.4 µM [cytotoxic, single point]
Cc1cc(NS(=O)(=O)c2ccc(N)cc2)no1	inactive
CN(C)c1nc(N(C)C)nc(N(C)C)n1	inconclusive: 0.0118 µM [cytotoxic, full curve, poor fit]
C[C@@]12C[C@@]3(O)O[C@@H](O1)[C@]1(COC(=O)c4ccccc4)[C@@H]3C[C@@]12O[C@@H]1O[C@H](CO)[C@@H](O)[C@H](O)[C@@H]1O	inconclusive: 3.32 µM [rising, full curve, poor fit]
CC(c1cc2ccccc2s1)N(O)C(N)=O (stereo not given)	inactive

In another format: entries from further up
Structure (SMILES) | Potency
COc1ccccc1-c1cccc(-c2c(O)c3cc(C#N)c(Cl)cc3[nH]c2=O)c1 | inconclusive: 3.4 µM [cytotoxic, full curve, poor fit]
O=[N+]([O-])c1cn2c(n1)OC[C@@H](OCc1ccc(OC(F)(F)F)cc1)C2 | inactive
O=C(CN1C(=O)C2(CCCC2)NC[C@H]1c1cc(F)cc(F)c1)Nc1ccc2c(c1)C[C@@]1(C2)C(=O)Nc2ncccc21 | inactive
N[C@@H](C(=O)N[C@@H]1C(=O)N2C(C(=O)O)=C(Cl)CS[C@H]12)c1ccccc1 | inconclusive: 11.8 µM [cytotoxic, single point]
CCCS(=O)(=O)Nc1ccc(F)c(C(=O)c2c[nH]c3ncc(Cl)cc23)c1F | active: 26.4 µM
CCC(C)(C)c1ccc(CC(C)CN2C[C@@H](C)O[C@@H](C)C2)cc1 (stereo not given in full) | inconclusive: 33.2 µM [cytotoxic, single point]
Cc1cnc(-c2cc(N3CCN(C(=O)CCS(C)(=O)=O)CC3)ncc2Cl)c(C)c1 | inconclusive: 11.8 µM [cytotoxic, single point]
CCN(CC)CCOc1ccc(Cc2ccccc2)cc1 | inconclusive: 37.2 µM [cytotoxic, single point]
NC(=O)c1cnccn1 | inactive
O=c1ncn2nc(Sc3ccc(F)cc3F)ccc2c1-c1c(Cl)cccc1Cl | inconclusive: 26.4 µM [cytotoxic, single point]
Cc1cc(NS(=O)(=O)c2ccc(N)cc2)no1 | inactive

(next part)

Structure (SMILES)	Potency
O=C(O)CCCc1c[nH]c2ccccc12	inconclusive: 0.0012 µM [rising, full curve, poor fit]
Cc1cc(C(C)Nc2ccccc2)c2nc(N3CCOCC3)cc(=O)n2c1 (stereo not given)	inconclusive: 18.7 µM [cytotoxic, partial curve, poor fit]
CCCCc1oc2ccc(NS(C)(=O)=O)cc2c1C(=O)c1ccc(OCCCN(CCCC)CCCC)cc1	active: 11.8 µM
CC(C)(O)CCc1ccc(OCc2cc(-c3cccc(OC(F)F)c3)c3ncccc3c2)cc1	inactive
NC(=NCc1ccccc1)NC(=O)c1nc(Cl)c(N)nc1N	inactive
Cc1cn([C@H]2C[C@H](N=[N+]=[N-])[C@@H](CO)O2)c(=O)[nH]c1=O	inactive
Nc1nccc(-c2ccc3noc(-c4ccc(Cl)cc4)c3c2)n1	inactive
Cc1cnc(NC(=O)C2=C(O)c3ccccc3S(=O)(=O)N2C)s1	inactive
COc1ccc(OC)c(-c2nnc3ccc(-c4ccc(OC)c(O[C@@H]5CCOC5)c4)nn23)c1	active: 6.62 µM
CN(C)CCc1c[nH]c2ccc(C[C@H]3COC(=O)N3)cc12	inactive
O=C(O)c1ccc(-n2nc(-c3ccccc3O)nc2-c2ccccc2O)cc1	inconclusive: 26.4 µM [cytotoxic, single point]
CNC(=O)c1ccc2c(C(=Nc3cccc(CN(C)C)c3)c3ccccc3)c(O)[nH]c2c1	inconclusive: 20.9 µM [cytotoxic, partial curve]
CNC(=O)c1c(-c2ccc(F)cc2)oc2cc(N(CCO)S(C)(=O)=O)c(C3CC3)cc12	inconclusive: 16.6 µM [cytotoxic, partial curve, poor fit]
COc1nc(C)nc(Cl)c1NC1=NCCN1	inactive
O=C(CC12CC3CC(CC(C3)C1)C2)Nc1cccc2nc(NCCNCCO)ccc12	inconclusive: 33.2 µM [cytotoxic, single point]
Cc1csc(-c2nnc(Nc3ccc(Oc4ncccc4-c4ccnc(N)n4)cc3)c3ccccc23)c1	inconclusive: 7.43 µM [cytotoxic, partial curve]
Cc1cnc(Nc2cccc(CN3CCOCC3)c2)nc1Nc1cccc(S(=O)(=O)NC(C)(C)C)c1	inconclusive: 14.8 µM [cytotoxic, partial curve, poor fit]
N=C(N)c1ccc2cc(OC(=O)c3ccc(N=C(N)N)cc3)ccc2c1	inconclusive: 18.7 µM [cytotoxic, partial curve, poor fit]
COc1nc(N)nc2c1ncn2[C@@H]1O[C@H](CO)[C@@H](O)[C@@H]1O	inactive
CC[C@]1(O)C[C@H]2CN(CCC3=c4ccccc4=N[C]3[C@@](C(=O)OC)(c3cc4c(cc3OC)N(C)[C@H]3[C@@](O)(C(N)=O)[C@H](O)[C@]5(CC)C=CCN6CC[C@]43[C@@H]65)C2)C1	inconclusive: 0.0019 µM [cytotoxic, full curve]
